{
  "sequences": {"note": "Sequences of proteins named here, by UniProt entry; tags and fusion partners are left off. A change or cut given only in a name is not applied to a line headed by its entry.", "UniProt P08151": "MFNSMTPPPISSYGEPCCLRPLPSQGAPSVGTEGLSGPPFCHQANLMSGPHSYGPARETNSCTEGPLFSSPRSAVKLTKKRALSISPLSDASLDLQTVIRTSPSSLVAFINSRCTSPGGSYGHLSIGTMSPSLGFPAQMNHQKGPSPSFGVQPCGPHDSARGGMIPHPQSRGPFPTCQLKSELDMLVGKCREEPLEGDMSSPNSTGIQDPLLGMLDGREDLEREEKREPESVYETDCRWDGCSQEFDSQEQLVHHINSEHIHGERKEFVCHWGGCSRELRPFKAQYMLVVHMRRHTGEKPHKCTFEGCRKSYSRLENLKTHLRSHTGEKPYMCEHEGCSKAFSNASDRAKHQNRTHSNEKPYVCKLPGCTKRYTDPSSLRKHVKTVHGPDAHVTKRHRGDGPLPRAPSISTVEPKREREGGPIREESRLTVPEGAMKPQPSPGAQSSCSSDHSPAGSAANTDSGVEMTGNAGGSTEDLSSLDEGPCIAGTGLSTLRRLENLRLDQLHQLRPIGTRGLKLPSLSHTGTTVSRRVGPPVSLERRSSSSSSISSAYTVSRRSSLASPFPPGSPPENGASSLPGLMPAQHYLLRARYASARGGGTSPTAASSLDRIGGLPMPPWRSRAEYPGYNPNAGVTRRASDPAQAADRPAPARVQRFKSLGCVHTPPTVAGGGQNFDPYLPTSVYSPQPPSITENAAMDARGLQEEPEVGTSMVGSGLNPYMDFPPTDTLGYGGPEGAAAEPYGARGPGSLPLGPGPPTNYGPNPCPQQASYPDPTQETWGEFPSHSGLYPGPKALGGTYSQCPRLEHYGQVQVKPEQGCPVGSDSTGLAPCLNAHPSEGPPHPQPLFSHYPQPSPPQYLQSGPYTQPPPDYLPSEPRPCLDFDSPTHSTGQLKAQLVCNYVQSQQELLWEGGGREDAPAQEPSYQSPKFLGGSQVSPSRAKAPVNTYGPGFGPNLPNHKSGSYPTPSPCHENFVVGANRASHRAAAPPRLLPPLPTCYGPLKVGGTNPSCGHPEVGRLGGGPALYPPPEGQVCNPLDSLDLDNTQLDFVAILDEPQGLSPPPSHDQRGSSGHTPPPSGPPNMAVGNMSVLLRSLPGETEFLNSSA"},
  "source": "paper PMC4742869",
  "target": "GLI1 (UniProt P08151)",
  "assay": "pull-down (streptavidin beads, western blot)",
  "conditions": "Oligo loading: 10 mM Tris-HCl pH 7.6, 1 M NaCl, 1 mM EDTA, 30 min RT, binding: 30 mM HEPES pH 7.5, 30 mM KCl, 0.5 mM DTT, 5% glycerol, 30 ug nuclear extract, 37 °C 1 h, protein in an extract, single-stranded DNA",
  "note": "For at least one entry, the source does not settle the construct or the ends of the probe. Where cells or extracts were used, other partners may take part. The comparison behind a weaker result is the experiment's own reference, which may not be listed here. At least one verdict rests on a figure or table, not on a statement of the authors.",
  "data": [
    {"sequence": "GACCACCCA [GLI1 consensus oligonucleotide]", "values": [
      {"measurement": "binding result", "setting": "nuclear lysate from cells treated with NQC (nanoquinacrine), NQC doses not given in the material", "result": "binds more weakly"},
      {"measurement": "binding result", "setting": "untreated cells", "result": "binds"}
    ]}
  ]
}
